Experimental data taken from doi:10.1101/542050.
No constants are given. Whether binding was seen depends on the method and setting. Binding seen in cells or lysates may run through a third protein. Some results given as binding are weak or reduced against the parent protein; the word gives no strength.

Chains of the proteins cited; added tags and fusions are not shown.
UniProt Q9H0U4: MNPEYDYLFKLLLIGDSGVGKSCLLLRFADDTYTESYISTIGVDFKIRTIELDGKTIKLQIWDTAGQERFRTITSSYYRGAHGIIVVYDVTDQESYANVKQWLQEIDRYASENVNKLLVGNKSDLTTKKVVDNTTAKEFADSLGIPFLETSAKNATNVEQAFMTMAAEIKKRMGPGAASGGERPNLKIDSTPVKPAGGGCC
UniProt Q7Z434: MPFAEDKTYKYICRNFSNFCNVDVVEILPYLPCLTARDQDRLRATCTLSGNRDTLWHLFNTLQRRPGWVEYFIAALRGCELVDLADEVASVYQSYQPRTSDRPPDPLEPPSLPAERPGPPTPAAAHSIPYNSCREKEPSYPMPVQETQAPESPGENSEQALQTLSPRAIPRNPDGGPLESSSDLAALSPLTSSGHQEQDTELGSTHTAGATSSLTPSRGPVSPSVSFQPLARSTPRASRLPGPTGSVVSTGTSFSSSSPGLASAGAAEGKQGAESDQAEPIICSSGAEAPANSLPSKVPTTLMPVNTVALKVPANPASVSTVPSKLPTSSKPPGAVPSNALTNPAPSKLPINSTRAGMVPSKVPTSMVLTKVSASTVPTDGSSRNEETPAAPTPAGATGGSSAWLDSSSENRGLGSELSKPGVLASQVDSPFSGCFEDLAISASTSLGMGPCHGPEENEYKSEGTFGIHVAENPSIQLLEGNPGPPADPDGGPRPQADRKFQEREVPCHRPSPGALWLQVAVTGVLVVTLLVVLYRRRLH

Molecular target: HA-RAB1B (UniProt Q9H0U4)
Experiment: co-IP

Flag-MAVS (from UniProt Q7Z434 1-540)
binding: binds
